The values below come from PubChem BioAssay AID493014 (National Center for Advancing Translational Sciences (NCATS), 2011).

This test in a line: qHTS Assay to Find Inhibitors of Chronic Active B-Cell Receptor Signaling. Conditions: ABC-DLBCL IkBa-CBG/CBR reporter, luminescence ratio (green luciferase fused to IkBa over red control in TMD8 lymphoma cells), 4 h. In short, it runs like this:
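Doxycycline induced both beetle luciferases in TMD8 lymphoma cells; IKK-driven degradation limits the IkappaBalpha-fused green signal, while red luminescence normalises for cell number and nonspecific effects. Compounds tested up to 46 uM, 4 hrs.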

Where [1] appears, read: measured here: CBR red luminescence, cell number.
[2] abbreviates: measured here: IkBa-CBG green luminescence.

The list shows a part of the results. Further columns of the screen follow, without active or inactive calls. Compounds called inactive in the main read-out are mostly missing here. Words in brackets tell the shape of the fitted curve; partial curves, single points and poor fits give uncertain potencies.

As to `CC(C)(C)C1CCc2nc(NC(=O)Cc3cn4ccsc4n3)sc2C1` (configuration not stated), under setting [1], the concentration at half-maximal activity (AC50) was 29.1 µM [falling, single point]. `CCOC(=O)c1cc2c(=O)[nH]c(C(Cl)(Cl)Cl)nc2o1`: the AC50 under setting [1] is 35.5 µM [falling, single point].

On to `C/C=C/c1ccc(OCCCCOc2c(OC)cccc2OC)c(OC)c1`, for which, under setting [1], the concentration at half-maximal activity (AC50) is 6.51 µM [rising, single point].

With `O=[N+]([O-])c1cccc(/C=C/c2nc3ccc([N+](=O)[O-])cc3[nH]2)c1`, the half-maximal activity concentration (AC50) under setting [1] is 0.794 µM [rising, full curve, poor fit]. For the compound `Cc1c(C(=O)NC2=NCCS2)oc2ccccc12`, under setting [1], the AC50 was 6.51 µM [rising, single point].

On to `COCCCN1C(=O)c2[nH]nc(-c3ccccc3O)c2C1c1cccc(Cl)c1` (configuration not stated), for which, under setting [1], the concentration at half-maximal activity (AC50) is 35.5 µM [falling, single point]. For the compound `COc1cccc(C(=O)Nc2c3c(nn2-c2cccc(C)c2C)CS(=O)C3)c1OC` (configuration not stated), the AC50 under setting [1] was 0.316 µM [falling, full curve, poor fit]. Regarding `O=C1CSC(c2ccccn2)N1c1ccccc1` (configuration not stated), under setting [1], the half-maximal activity concentration (AC50) was 3.55 µM [falling, single point]. Regarding `Cc1cc(=O)n2[nH]c(SCc3ccccc3)nc2n1`, the half-maximal activity concentration (AC50) under setting [1] was 7.31 µM [falling, partial curve]. Same read-out and setting: under `COc1cccc(NC(=O)C(=S)NC2CCCCC2)c1` stands 12.6 µM [falling, partial curve]. Same read-out and setting: the value for `CC1CCCC(NC(=S)Nc2cccc(S(=O)(=O)N(C)C)c2)C1C` (configuration not stated) was 0.501 µM [rising, full curve]. For `CN(C)C(=O)CSc1nnc(-c2cccs2)n1-c1ccccc1`, the AC50 under setting [1] was 25.1 µM [rising, single point]. On to `S=C(NCc1ccc2c(c1)OCO2)NCc1ccco1`, for which the AC50 under setting [1] is 35.5 µM [falling, partial curve, poor fit].

For `CC(=O)OCC(=O)[C@@]1(OC(C)=O)[C@@H](C)C[C@H]2[C@@H]3C[C@H](F)C4=CC(=O)C=C[C@]4(C)[C@@]3(F)[C@@H](O)C[C@@]21C`, the AC50 under setting [1] was 0.092 µM [rising, full curve, poor fit].

Take `CCn1c(=N)n(CC(O)COc2cccc(C)c2)c2ccccc21` (configuration not stated): under setting [1], the half-maximal activity concentration (AC50) is 23.1 µM [falling, partial curve, poor fit].

Take `CCSC1=C(C#N)C(=O)n2c1cc1c2CCCC1`: under setting [1], the half-maximal activity concentration (AC50) was 18.4 µM [falling, single point]. On to `[O-]/[N+](=C/c1ccco1)c1ccccc1`, for which the AC50 under setting [1] is 7.94 µM [falling, partial curve]. As for `Cc1c2ccccc2c(C)c2c1ccc1ccccc12`, the AC50 under setting [1] was 10.3 µM [rising, partial curve, poor fit]. As to `COc1ccc(-c2nn(-c3ccccc3C)cc2CNC(C)c2cn(C)nc2C)cc1F` (configuration not stated), the AC50 under setting [1] was 17.8 µM [falling, single point]. Consider `CCN(CC)CCCCNc1ncc2cc(-c3cc(OC)cc(OC)c3)c(NC(=O)NC(C)(C)C)nc2n1`, for which the concentration at half-maximal activity (AC50) under setting [1] is 5.62 µM [falling, full curve, poor fit]. `O=C(Nc1cccc(Cl)c1Cl)C1CC(=O)N(c2ccc(Br)cc2)C1` (configuration not stated): the AC50 under setting [1] is 29.1 µM [rising, single point]. For `Cc1ccc(Cn2nc(C)cc2C(=O)Nc2ccc(Cl)cc2)cc1`, under setting [1], the concentration at half-maximal activity (AC50) is 15.8 µM [falling, single point].

Take `O=C(Nc1cccc(S(=O)(=O)N2CCCCC2)c1)c1ccc2ncsc2c1`: the AC50 under setting [1] is 4.47 µM [falling, partial curve].

Regarding `CCCCn1c(N)c(N(CC(C)C)C(=O)C2=NN(c3ccccc3)C(=O)CC2)c(=O)[nH]c1=O`, the AC50 under setting [1] is 0.411 µM [rising, full curve, poor fit].

Take `CCCn1nc(C(=O)N(C)CC(=O)Nc2ccc(OCC)c(OCC)c2)c2ccccc2c1=O`: the AC50 under setting [1] is 0.326 µM [falling, full curve, poor fit].

With `CNCc1ccccc1Sc1cc(O)ccc1O`, the AC50 by setting is: under setting [1], 29.1 µM [falling, single point]; under setting [2], 23.1 µM [falling, single point]. For `N#CC1=C2SCN(c3ccccc3)CN2C(=O)CC1c1c(Cl)cccc1Cl` (configuration not stated), the AC50 under setting [2] is 15.8 µM [falling, single point].

Regarding `CC(C)n1cnc2c(Nc3ccc(F)c(Cl)c3)nc(NCCO)nc21`, the concentration at half-maximal activity (AC50) under setting [1] was 15.8 µM [falling, single point].

For the compound `CC(C)c1ccc(NC(=O)C(=O)C2C(=O)Nc3ccccc32)cc1` (configuration not stated), under setting [1], the AC50 was 11.2 µM [falling, single point].

Consider `CN1CCN(c2ccccc2NC(=O)c2cccs2)CC1`, for which the AC50 under setting [1] is 35.5 µM [falling, partial curve, poor fit]. With `CN(CC(=O)Nc1ccc(F)cc1)C(=O)COC(=O)CNC(=O)c1ccc(Cl)cc1Cl`, under setting [1], the AC50 is 0.326 µM [falling, full curve, poor fit].

Turning to `CCCN1CCC(=O)N([C@H](COc2ccccc2)c2ccccc2)CC1`, the concentration at half-maximal activity (AC50) under setting [1] is 10 µM [falling, partial curve, poor fit]. `Cc1ccc(-c2nc(N=Nc3ccc(O)cc3)n[nH]2)cc1`: the half-maximal activity concentration (AC50) under setting [1] is 2.31 µM [falling, partial curve]. Still for that read-out and setting: the value for `COC(=O)c1ccc(NC(=O)c2ccc(CN3CCOCC3)cc2)cc1` was 29.1 µM [rising, single point]; that for `O=C(COC(=O)c1ccc(CNS(=O)(=O)c2ccc(F)c(Cl)c2)cc1)NC1CCCCCCC1` was 7.31 µM [falling, single point]; that for `COc1ccc(N(C)S(=O)(=O)c2c(C)noc2C)c(OC)c1` was 14.1 µM [rising, single point].

As for `Cn1cc(C(=O)NCN2CCCCC2)c2ccccc21`, the AC50 under setting [1] is 0.731 µM [rising, full curve, poor fit]. For `Oc1ccc(-c2csc(NCc3ccco3)n2)cc1`, the AC50 under setting [1] was 16.4 µM [falling, single point].

As to `CSc1nc(C)c(Cc2c(F)cccc2Cl)c(=O)[nH]1`, the concentration at half-maximal activity (AC50) under setting [1] is 14.1 µM [rising, partial curve, poor fit]. Regarding `Cc1n[nH]c(C)c1CCCCOc1ccccc1F`, the AC50 under setting [1] was 6.31 µM [rising, single point]. With `N#Cc1c(Cl)nsc1NC(=O)c1ccccc1`, under setting [1], the half-maximal activity concentration (AC50) was 11.2 µM [falling, single point]. Take `COc1ccc(-c2oc(NC(=O)c3ccc(C)cc3)c(C#N)c2-c2ccc(OC)cc2)cc1`: the AC50 under setting [1] is 1.84 µM [rising, partial curve, poor fit]. Regarding `COc1ccc(/C(N)=N/OC(=O)Cc2ccccc2[N+](=O)[O-])cc1`, the half-maximal activity concentration (AC50) under setting [1] is 2.59 µM [rising, partial curve].

Consider `C/C(Cl)=C/Cc1c(C)[nH]c2c(ccc3ccccc32)c1=O`, for which the AC50 under setting [1] is 3.55 µM [falling, full curve]. `OC(c1ccc(OCc2ccccc2)cc1)c1nnc(-c2ccccc2)o1` (configuration not stated): under setting [1], the concentration at half-maximal activity (AC50) is 0.517 µM [rising, full curve, poor fit]. Turning to `Cc1ccc(C(=O)N/N=C\C=C\c2ccc(Br)cc2)cn1`, the half-maximal activity concentration (AC50) under setting [1] is 0.178 µM [falling, full curve]. Take `Cc1c(C(=O)Nc2ccc3c(c2)OCO3)sc2ncn(CC(=O)N3CC(C)CC(C)C3)c(=O)c12` (configuration not stated): the AC50 under setting [1] was 18.4 µM [falling, single point]. Turning to `COc1ccccc1CNC(=O)Cc1csc(NC(=O)Nc2ccccc2OC)n1`, under setting [1], the half-maximal activity concentration (AC50) is 29.1 µM [falling, single point].

Regarding `COc1cc(/C=C(\C#N)C(=O)c2c[nH]c3ccccc23)cc(OC)c1O`, the half-maximal activity concentration (AC50) under setting [1] is 22.4 µM [falling, partial curve].

In the case of `COc1ccc(C)cc1NC(=O)C(NCC1CCCO1)c1ccccc1` (configuration not stated), the half-maximal activity concentration (AC50) under setting [1] was 6.51 µM [rising, single point]. As for `CCOc1ccc2ccccc2c1/C=N/NC(=O)c1ccncc1`, the AC50 under setting [1] is 20 µM [rising, single point]. Turning to `CO/N=C(/COc1ccc(F)cc1)c1ccc(OC)cc1`, the AC50 under setting [1] is 3.55 µM [rising, partial curve, poor fit].

As to `c1ccc(CCNc2ncnc3ccccc23)cc1`, the concentration at half-maximal activity (AC50) under setting [1] was 17.8 µM [falling, single point]. As to `CCOC(=O)c1[nH]c(C)c(/C=N/O)c1C`, the half-maximal activity concentration (AC50) was 11.2 µM [falling, partial curve, poor fit] under setting [1] and 11.2 µM [falling, partial curve, poor fit] under setting [2]. Regarding `Cn1nnnc1Sc1ncnc2scc(-c3cccc(F)c3)c12`, the AC50 under setting [1] is 2.59 µM [falling, partial curve]. Take `CCCCCCCNC(=O)c1ccc(N2CCC3(CC2)OCCO3)c([N+](=O)[O-])c1`: the AC50 under setting [2] was 5.8 µM [falling, partial curve, poor fit].

Take `O=C(NCCCc1ccccc1)Nc1cccc(Cl)c1`: the AC50 under setting [1] is 29.1 µM [falling, single point]. Regarding `Cc1ccc(-c2nn(-c3ccccc3)cc2/C=C2\SC(=S)N(CCCCCC(=O)O)C2=O)o1`, the AC50 under setting [1] was 4.47 µM [falling, partial curve, poor fit]. As to `OCc1cc(-c2ccc(Cl)c(Cl)c2)on1`, under setting [1], the AC50 was 8.91 µM [rising, partial curve, poor fit].

With `Cc1cccc(NC(=S)NCc2ccc3c(c2)OCO3)c1`, the half-maximal activity concentration (AC50) under setting [1] was 0.651 µM [rising, full curve, poor fit]. `CCOC(=O)c1ccc(NC(=O)CSc2ccc3ccccc3n2)cc1`: under setting [1], the AC50 is 0.708 µM [falling, full curve, poor fit].

`COc1ccccc1NC(=O)CCC(=O)Nc1cc(OC)c(NC(=O)c2cccs2)cc1OC`: the half-maximal activity concentration (AC50) under setting [1] was 35.5 µM [falling, single point]. For the compound `COc1ccc2oc(=O)c(C(=O)Nc3ccccc3O)cc2c1`, the AC50 under setting [1] was 3.55 µM [falling, partial curve].

Consider `CCOC(=O)c1c(N)c2cc([N+](=O)[O-])ccc2n1C`, for which the half-maximal activity concentration (AC50) under setting [1] is 1.26 µM [rising, partial curve]. With `O=C(CC1CCCCC1)NCc1ccccn1`, under setting [1], the AC50 was 29.1 µM [rising, single point].
